# Test results taken from US20220002551A1, “A NOVEL CLASS OF PIGMENTS IN ASPERGILLUS” (DANMARKS TEKNISKE UNIVERSITET, priority 2019, published 2022).
# What was measured:
# [1] = Coloration of skyr, CIEL*a*b* colorimetric analysis; details: 46 PPM
# [2] = Coloration of milk, CIEL*a*b* colorimetric analysis; details: skim milk; for ΔE*: versus 0 PPM
# [3] = Coloration of epoxy, CIEL*a*b* colorimetric analysis; details: for ΔE*: versus 0 PPM
# [4] = Coloration of homemade gummis, CIEL*a*b* colorimetric analysis; details: gummi, 180 PPM
smiles,measurement,setting,value
C/C=C\C1=CC2=CC3=C(C(=O)C(C)CC)C(=O)OC3(C)C(=O)C2=CN1C(CC(C)C)C(=O)O (stereo not drawn) [cis-cavernamine-L],L*a*b* values: L,[1],L: 86.89
same,L*a*b* values: a,[1],a: 6.40
same,L*a*b* values: b,[1],b: 1.44
same,ΔE*,[1]; versus 0 PPM,12.48
same,L*a*b* values: L,[2]; 28 PPM,L: 78.36
same,L*a*b* values: a,[2]; 28 PPM,a: 6.07
same,L*a*b* values: b,[2]; 28 PPM,b: 2.01
same,ΔE*,[2]; 28 PPM,12.07
same,L*a*b* values: L,[2]; 140 PPM,L: 53.89
same,L*a*b* values: a,[2]; 140 PPM,a: 15.22
same,L*a*b* values: b,[2]; 140 PPM,b: 5.4
same,ΔE*,[2]; 140 PPM,37.37
same,L*a*b* values: L,[2]; 280 PPM,L: 52.04
same,L*a*b* values: a,[2]; 280 PPM,a: 18.10
same,L*a*b* values: b,[2]; 280 PPM,b: 7.34
same,ΔE*,[2]; 280 PPM,40.74
same,L*a*b* values: L,[3]; 30 PPM,L: 70.13
same,L*a*b* values: a,[3]; 30 PPM,a: 4.81
same,L*a*b* values: b,[3]; 30 PPM,b: 14.09
same,ΔE*,[3]; 30 PPM,17.64
same,L*a*b* values: L,[3]; 600 PPM,L: 43.20
same,L*a*b* values: a,[3]; 600 PPM,a: 15.33
same,L*a*b* values: b,[3]; 600 PPM,b: 9.32
same,ΔE*,[3]; 600 PPM,40.99
same,L*a*b* values: L,[4],L: 31.74
same,L*a*b* values: a,[4],a: 21.89
same,L*a*b* values: b,[4],b: 7.29
same,ΔE*,[4]; versus 0 PPM,22.96
